Assay results: paper PMC4376871
Results are given in words; binding and its absence hold for the method and conditions named. For some assays here: Binding calls can cover weak binding; strength is not graded here. Where a sequence is shown, tags or fusion partners need not be part of it.

Columns and labels:
Test in all cases: two-hybrid; Matchmaker Two-Hybrid System 3, yeast AH109; C4 on the GAL4 activation domain, AtSKs and Lamin C on the GAL4 DNA binding domain; growth curves (OD600) in quadruple dropout medium at 30°C, high stringency
[1] = target: T1, Arabidopsis SHAGGY-like protein kinase AtSK11 fused to the GAL4 DNA binding domain (Arabidopsis thaliana (ecotype Sei-0 cDNA)) (UniProt P43288)
T1 sequence: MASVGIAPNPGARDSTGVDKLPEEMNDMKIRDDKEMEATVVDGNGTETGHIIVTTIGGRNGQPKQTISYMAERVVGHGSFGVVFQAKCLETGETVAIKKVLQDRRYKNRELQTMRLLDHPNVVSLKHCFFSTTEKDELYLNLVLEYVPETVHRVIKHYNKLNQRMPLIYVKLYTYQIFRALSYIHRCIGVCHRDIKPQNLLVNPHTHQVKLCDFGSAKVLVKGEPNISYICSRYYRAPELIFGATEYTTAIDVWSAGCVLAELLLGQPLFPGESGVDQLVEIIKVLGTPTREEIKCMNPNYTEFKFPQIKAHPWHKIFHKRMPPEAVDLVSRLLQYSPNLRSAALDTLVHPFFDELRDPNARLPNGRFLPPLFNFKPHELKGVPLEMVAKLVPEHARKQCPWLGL

[2] = target: T2, Arabidopsis SHAGGY-like protein kinase AtSK12 fused to the GAL4 DNA binding domain (Arabidopsis thaliana (ecotype Sei-0 cDNA)) (UniProt P43289)
T2 sequence: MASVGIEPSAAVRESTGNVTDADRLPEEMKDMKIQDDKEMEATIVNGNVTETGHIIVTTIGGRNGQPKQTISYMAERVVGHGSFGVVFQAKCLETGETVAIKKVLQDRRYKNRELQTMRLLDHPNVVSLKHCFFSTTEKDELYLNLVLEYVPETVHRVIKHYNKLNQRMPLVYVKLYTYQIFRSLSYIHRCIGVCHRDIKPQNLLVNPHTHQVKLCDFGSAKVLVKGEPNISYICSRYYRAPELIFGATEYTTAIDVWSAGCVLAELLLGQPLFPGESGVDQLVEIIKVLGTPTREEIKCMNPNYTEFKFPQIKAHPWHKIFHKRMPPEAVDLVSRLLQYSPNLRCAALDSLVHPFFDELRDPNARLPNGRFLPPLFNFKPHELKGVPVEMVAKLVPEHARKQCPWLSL

[3] = target: T3, Arabidopsis SHAGGY-like protein kinase AtSK21 fused to the GAL4 DNA binding domain (Arabidopsis thaliana (ecotype Sei-0 cDNA)) (UniProt Q39011)
T3 sequence: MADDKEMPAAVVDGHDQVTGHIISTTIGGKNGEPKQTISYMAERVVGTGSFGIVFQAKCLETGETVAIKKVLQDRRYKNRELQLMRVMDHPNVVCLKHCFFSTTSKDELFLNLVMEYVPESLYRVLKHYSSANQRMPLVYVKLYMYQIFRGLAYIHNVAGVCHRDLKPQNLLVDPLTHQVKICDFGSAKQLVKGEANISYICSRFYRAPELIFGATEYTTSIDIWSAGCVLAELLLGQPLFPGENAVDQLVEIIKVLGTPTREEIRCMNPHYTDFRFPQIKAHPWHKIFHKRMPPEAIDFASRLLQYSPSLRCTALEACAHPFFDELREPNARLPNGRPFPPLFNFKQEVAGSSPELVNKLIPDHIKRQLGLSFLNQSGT

[4] = target: T4, Arabidopsis SHAGGY-like protein kinase AtSK22 fused to the GAL4 DNA binding domain (Arabidopsis thaliana (ecotype Sei-0 cDNA)) (UniProt Q39012)
T4 sequence: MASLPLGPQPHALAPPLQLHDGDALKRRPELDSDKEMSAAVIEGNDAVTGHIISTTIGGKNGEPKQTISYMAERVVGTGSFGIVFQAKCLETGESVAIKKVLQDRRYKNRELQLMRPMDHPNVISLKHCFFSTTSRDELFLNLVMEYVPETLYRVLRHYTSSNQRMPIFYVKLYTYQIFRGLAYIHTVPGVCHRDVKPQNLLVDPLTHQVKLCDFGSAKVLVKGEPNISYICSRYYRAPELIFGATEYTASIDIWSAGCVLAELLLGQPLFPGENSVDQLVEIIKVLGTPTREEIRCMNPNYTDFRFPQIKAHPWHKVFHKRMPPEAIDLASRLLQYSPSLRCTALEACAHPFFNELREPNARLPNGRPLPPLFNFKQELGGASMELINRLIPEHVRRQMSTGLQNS

[5] = target: T5, Arabidopsis SHAGGY-like protein kinase AtSK42 fused to the GAL4 DNA binding domain (Arabidopsis thaliana (ecotype Sei-0 cDNA)) (UniProt Q9FVS6)
T5 sequence: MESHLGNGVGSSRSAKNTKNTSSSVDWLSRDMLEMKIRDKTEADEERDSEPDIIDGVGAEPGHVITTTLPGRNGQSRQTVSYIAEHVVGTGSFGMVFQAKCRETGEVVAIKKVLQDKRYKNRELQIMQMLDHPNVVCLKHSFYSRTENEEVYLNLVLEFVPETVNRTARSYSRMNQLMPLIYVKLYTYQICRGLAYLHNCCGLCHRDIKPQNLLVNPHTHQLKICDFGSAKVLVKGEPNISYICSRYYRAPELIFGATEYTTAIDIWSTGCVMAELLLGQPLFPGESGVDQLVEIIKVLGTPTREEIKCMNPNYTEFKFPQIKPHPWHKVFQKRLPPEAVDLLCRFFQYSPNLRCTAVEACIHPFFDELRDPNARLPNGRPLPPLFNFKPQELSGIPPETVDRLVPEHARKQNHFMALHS

Substance: Beet curly top virus (BCTV-B[US:Logan:76]) C4 protein fused to the GAL4 activation domain
- binding [1]: binds
- binding [2]: binds
- binding [3]: binds
- binding [4]: binds
- binding [5]: no binding
